From patent publication US12297218B2, “Complex comprising a PSMA-targeting compound linked to a lead or thorium radionuclide” (Sciencons AS, priority 2017, dated 2025)
Some entries share one result that the patent states for a list of compounds.

Test system: C4-2 cells
Experiment: Prostate cancer cell binding of ligands labeled with ^212Pb
Parameters: species or system human
Settings: ligand labeled with ^212Pb, about 1 ng radioligand, 1 h
Protocol: the cell binding fractions measured by adding about 1 ng of radioligand to 0.2 ml of C4-2 cells (5×10^7 cells per ml) in a 5 ml test tube and incubate for 1 h before measuring applied activity, wash cells 3 times with 0.5 ml 0.5% bovine serum albumin in DPBS and thereafter recount the washed cell pellet. […] Nonspecific binding was measured by blocking the cells with excess 10 μg/ml of unlabelled ligand before adding radioligand.

Compound | % bound after subtracting for nonspecific binding
NC(=O)CN1CCN(CC(N)=O)CCN(CC(N)=O)C(Cc2ccc(NC(=S)NC[C@H]3CC[C@H](C(=O)N[C@@H](Cc4ccc5ccccc5c4)C(=O)NCCCC[C@H](NC(=O)N[C@@H](CCC(=O)O)C(=O)O)C(=O)O)CC3)cc2)CN(CC(N)=O)CC1 (stereo partly drawn) [p-SCN-Bn-TCMC-PSMA ligand 1, (((1S)-1-carboxy-5-((2S)-3-(naphthalen-2-yl)-2-((1r,4S)-4-((3-(4-((1,4,7,10-tetrakis(2-amino-2-oxoethyl)-1,4,7,10-tetraazacyclododecan-2-yl)methyl)phenyl)thioureido)methyl)cyclohexane-1-carboxamido)propanamido)pentyl)carbamoyl)-L-glutamic acid; trifloroacetic acid (1:4)] | 40-53%
O=C(O)CC[C@H](NC(=O)N[C@@H](CCCCNC(=O)[C@H](Cc1ccc2ccccc2c1)NC(=O)[C@H]1CC[C@H](CNC(=O)CN2CCN(CC(=O)O)CCN(CC(=O)O)CCN(CC(=O)O)CC2)CC1)C(=O)O)C(=O)O [PSMA-617, reference compound] | 40-53%
